Source: patent US6696495B2, “Treatment of disorders secondary to organic impairments” (Snowden Pharmaceuticals, LLC, priority 1998, dated 2004)

System: Sexual Function and ADD
Assay: Case history 4, Sibutramine Patient No. 109
Type: in vivo, human
Details: before sibutramine

**Q.** With `COc1cc2c(cc1OC)C(=O)C(CC1CCN(Cc3ccccc3)CC1)C2` (stereo not shown) [donepezil] as the compound, how does the “response to other medications” value read?
**A.** The value was “unsuccessful”.
